Measured values published in patent US20130295021A1.
No constants are given. Whether binding was seen depends on the method and setting. Some binding calls cover weakened binding; strength is not graded here. One block for each binder: values may come before it.

Amino acid sequences for entries named in this document (tags omitted). A change or cut given only in a name is not applied to a line headed by its entry.
UniProt P10636: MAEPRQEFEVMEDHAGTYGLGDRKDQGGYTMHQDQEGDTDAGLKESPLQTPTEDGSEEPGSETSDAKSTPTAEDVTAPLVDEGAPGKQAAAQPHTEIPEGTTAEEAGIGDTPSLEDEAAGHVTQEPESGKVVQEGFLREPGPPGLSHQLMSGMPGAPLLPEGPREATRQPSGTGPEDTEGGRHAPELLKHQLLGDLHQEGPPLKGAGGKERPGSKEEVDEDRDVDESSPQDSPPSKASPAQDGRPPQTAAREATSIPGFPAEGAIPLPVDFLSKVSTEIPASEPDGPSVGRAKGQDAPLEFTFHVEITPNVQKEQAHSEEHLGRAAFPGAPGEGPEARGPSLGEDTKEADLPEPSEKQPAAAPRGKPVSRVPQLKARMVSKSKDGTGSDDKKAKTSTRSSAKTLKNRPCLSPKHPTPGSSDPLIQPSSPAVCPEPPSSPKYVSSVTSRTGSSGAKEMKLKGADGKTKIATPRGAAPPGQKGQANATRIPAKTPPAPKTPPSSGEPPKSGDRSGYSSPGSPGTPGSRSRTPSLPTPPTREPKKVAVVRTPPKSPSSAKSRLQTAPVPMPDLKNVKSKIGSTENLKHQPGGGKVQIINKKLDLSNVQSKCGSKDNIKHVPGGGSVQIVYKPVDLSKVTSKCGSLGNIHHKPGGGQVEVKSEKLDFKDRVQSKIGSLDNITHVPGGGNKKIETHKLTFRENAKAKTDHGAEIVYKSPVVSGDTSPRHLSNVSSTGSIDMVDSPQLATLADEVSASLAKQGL

Key:
[1] = molecular target: PHFTau, paired helical filaments containing pathologically phosphorylated tau filaments extracted from AD brain (human) (UniProt P10636); experiment: Western blot after SDS-PAGE
[2] = molecular target: T1, hTau40 PepSpot peptides 83, 84 and 85 (covering amino acids 329-351 of hTau40) (human); experiment: PepSpot peptide array (legend of FIG. 4)
T1 sequence (peptide): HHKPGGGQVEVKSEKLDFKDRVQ

[3] = molecular target: T2, hTau40 PepSpot peptides 96 and 97 (amino acids 387-397 of hTau40 as stated) (human); experiment: PepSpot peptide array (legend of FIG. 4)
T2 sequence (peptide): DHGAEIVYKSP

[4] = molecular target: T1, hTau40 PepSpot peptides 83, 84 and 85 (covering amino acids 329-351 of hTau40) (human); experiment: PepSpot peptide array, 100 nM antibody
[5] = molecular target: T2, hTau40 PepSpot peptides 96 and 97 (amino acids 387-397 of hTau40 as stated) (human); experiment: PepSpot peptide array, 100 nM antibody

binding [1]: binds
B1: recombinant human tau antibody NI-105.24B2 (antibody, human IgG1, V domains shown)
VH: QVQLVQSGAEVKKPGASVKVSCKASGYTFVNYIIHWVRQAPGQGLEWMGIINPNGGNTSYAEKFQARVTLTSDTSTSTVYMDLSSLTSEDTAVYYCAVLSPSNPWGQGTTVTVSS
VL: SYELTQPPSVSVSPGQTAGITCSGDALPKQFVYWYQKKPGQAPVLLIYKDTERPSRIPERFSGSTSGTTVALTINGVQAEDEADYYCQSADRSGALWVFGGGTKLTVL

binding [2]: binds | binding [3]: binds | binding [4]: binds | binding [5]: binds
B2: recombinant human tau antibody NI-105.4E4 (antibody, V domains shown)
VH: EVQLVESGGGLVQPGGSLKLSCAASGFNFNISAIHWVRQASGKGLEWVGRIRSKSHNYATLYAASLKGRFTLSRDDSRNTAYLQMSSLQTEDMAVYYCTVLSANYDTFDYWGQGTLVTVSS
VL: SYELTQPPSVSVSPGQTARISCFGDTLPKQYTYWYQQKPGQAPVLVIYKDTERPSGIPERFSGSSSGTTVTLTISGVQAEDEADYYCLSADNSATWVFGGGTKVTVL
